Measured values: paper PMC6915709
No constants are given. Whether binding was seen depends on the method and setting. Binding seen in cells or lysates may run through a third protein. Some entries that bind do so weakly or less than the wild type.

The chains behind the UniProt entries cited, without tags or fusion partners. Where a name states a change or a piece, a line headed by the entry shows the natural chain unless it says otherwise. A line that says so, or that is headed by a name, gives the form on record, which may keep a tag or linker. Residues count along the entry.
UniProt Q02789: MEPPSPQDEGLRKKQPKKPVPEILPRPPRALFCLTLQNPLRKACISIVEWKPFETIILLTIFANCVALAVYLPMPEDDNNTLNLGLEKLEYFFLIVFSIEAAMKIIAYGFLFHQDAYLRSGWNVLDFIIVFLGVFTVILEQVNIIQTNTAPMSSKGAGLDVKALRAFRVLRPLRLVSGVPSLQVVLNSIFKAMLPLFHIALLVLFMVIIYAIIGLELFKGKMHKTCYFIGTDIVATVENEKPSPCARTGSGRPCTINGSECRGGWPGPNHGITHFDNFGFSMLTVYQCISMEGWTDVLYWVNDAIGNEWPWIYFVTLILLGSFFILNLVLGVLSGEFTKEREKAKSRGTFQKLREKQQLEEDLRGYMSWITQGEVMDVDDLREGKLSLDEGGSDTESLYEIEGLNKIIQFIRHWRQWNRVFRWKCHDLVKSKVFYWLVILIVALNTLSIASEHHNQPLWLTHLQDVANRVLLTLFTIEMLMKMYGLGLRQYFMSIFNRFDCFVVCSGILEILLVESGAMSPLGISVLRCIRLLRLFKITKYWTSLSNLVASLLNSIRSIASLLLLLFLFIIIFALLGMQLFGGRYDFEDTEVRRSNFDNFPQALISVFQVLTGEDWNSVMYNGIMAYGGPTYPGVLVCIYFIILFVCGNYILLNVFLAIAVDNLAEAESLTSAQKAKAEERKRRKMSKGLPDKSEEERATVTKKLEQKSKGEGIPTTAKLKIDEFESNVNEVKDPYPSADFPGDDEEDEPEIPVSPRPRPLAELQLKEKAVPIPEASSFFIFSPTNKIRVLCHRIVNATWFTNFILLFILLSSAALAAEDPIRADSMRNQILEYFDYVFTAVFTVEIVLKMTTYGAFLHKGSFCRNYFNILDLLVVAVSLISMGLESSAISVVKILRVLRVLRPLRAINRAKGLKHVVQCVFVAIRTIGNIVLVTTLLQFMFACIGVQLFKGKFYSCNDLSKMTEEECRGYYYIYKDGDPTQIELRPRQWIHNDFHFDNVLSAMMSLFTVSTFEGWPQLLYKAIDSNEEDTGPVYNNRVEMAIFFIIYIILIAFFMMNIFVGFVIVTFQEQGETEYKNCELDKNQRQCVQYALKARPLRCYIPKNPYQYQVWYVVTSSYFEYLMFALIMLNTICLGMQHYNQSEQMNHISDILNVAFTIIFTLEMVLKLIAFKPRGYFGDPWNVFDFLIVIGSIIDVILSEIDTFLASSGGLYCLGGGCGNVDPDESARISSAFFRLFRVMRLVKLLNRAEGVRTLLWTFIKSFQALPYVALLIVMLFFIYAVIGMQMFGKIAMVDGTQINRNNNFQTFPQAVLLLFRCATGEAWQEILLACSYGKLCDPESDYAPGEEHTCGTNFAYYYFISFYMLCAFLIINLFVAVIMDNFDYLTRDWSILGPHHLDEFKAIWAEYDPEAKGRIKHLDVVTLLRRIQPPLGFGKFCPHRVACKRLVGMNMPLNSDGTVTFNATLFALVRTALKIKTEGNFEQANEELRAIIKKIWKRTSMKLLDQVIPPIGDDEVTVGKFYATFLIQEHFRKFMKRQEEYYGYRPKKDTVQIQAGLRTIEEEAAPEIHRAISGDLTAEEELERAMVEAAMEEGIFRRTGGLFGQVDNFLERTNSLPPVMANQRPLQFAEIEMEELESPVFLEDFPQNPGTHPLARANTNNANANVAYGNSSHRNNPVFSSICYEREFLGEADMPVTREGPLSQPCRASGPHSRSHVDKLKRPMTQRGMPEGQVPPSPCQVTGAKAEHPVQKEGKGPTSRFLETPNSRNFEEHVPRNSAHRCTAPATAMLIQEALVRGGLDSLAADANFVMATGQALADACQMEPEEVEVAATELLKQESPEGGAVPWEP
UniProt P70302, residues 23-685: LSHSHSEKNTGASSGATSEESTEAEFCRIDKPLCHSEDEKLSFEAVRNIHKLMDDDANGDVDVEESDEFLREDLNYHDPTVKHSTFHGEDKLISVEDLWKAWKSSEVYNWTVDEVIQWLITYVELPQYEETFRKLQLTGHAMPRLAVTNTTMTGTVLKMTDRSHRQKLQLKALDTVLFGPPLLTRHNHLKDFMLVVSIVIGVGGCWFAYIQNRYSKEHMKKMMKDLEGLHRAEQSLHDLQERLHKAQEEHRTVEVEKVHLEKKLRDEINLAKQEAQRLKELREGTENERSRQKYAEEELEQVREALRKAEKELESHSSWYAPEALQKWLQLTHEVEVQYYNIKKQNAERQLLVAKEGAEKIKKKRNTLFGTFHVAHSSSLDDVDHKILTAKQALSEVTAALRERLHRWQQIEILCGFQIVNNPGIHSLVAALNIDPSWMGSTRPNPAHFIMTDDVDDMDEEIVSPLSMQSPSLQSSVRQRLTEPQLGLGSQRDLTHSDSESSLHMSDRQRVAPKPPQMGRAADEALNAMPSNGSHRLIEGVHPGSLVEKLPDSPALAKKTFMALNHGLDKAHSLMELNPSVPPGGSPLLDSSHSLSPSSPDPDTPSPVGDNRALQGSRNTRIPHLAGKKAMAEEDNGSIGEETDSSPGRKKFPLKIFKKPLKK
CFP-R429C (human STIM1 mutant R429C, CFP-tagged) (Q13586-1, form named): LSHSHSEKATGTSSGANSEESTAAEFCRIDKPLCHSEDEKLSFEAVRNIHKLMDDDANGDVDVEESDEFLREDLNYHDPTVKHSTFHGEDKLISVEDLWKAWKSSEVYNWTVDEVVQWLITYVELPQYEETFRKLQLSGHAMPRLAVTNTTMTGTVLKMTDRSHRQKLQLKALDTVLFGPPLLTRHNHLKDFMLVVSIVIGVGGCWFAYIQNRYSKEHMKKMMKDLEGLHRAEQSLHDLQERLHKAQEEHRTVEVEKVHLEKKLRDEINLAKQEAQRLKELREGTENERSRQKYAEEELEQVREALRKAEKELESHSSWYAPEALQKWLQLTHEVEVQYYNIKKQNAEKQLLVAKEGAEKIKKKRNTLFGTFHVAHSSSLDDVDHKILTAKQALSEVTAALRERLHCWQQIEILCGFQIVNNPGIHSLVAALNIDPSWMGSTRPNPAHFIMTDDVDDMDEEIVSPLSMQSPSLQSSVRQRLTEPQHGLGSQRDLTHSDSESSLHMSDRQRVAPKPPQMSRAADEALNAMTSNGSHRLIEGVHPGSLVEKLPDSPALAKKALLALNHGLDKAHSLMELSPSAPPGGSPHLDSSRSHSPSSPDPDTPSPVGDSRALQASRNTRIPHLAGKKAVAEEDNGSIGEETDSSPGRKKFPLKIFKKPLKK

Assays:
[1] = target: dihydropyridine receptor (DHPR, voltage-gated Ca2+ channel Cav1.1) (mouse (endogenous in mouse primary skeletal myotubes)) (UniProt Q02789); assay: co-IP; lysate of transfected mouse primary skeletal myotubes (80 or 100 µg of total protein); precipitated with anti-STIM1 or anti-DHPR antibody; blotted with anti-DHPR, anti-STIM1 or anti-GFP (for CFP-R429C)
[2] = target: endogenous STIM1 (stromal interaction molecule 1) of mouse primary skeletal myotubes (mouse (endogenous in mouse primary skeletal myotubes)) (UniProt P70302); assay: as above

CFP-R429C (human STIM1 mutant R429C, CFP-tagged) (from UniProt Q13586-1 23-685)
binding [1]: no binding | binding [2]: binds
